According to article PMC8155045:
Results are given in words; binding and its absence hold for the method and conditions named. For some assays here: Binding seen in cells or lysates may run through a third protein. Sequences can lack the tags named with a protein.

How the values were obtained:
[1] = molecular target: EGFP-YB (UniProt P25208); assay: Number and Brightness (NB) analysis; apparent brightness of eGFP-tagged subunit in nuclei of live HeLa cells against monomeric eGFP and 5GFP controls, 37 degrees, 5% CO2
[2] = molecular target: T1, mCherry-YB (UniProt P25208); assay: FRET or BRET; FLIM-FRET (phasor analysis) in nuclei of live HeLa cells, eGFP donor and mCherry acceptor, all three NF-Y subunits transfected (third one untagged), 24 h after transfection, 37 degrees, 5% CO2
T1 sequence: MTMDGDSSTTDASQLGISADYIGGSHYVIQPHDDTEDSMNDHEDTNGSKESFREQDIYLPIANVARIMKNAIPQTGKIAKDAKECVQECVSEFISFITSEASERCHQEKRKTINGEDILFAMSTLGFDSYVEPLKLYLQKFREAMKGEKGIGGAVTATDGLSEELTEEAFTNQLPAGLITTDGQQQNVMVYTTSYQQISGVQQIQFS

binding [1]: no binding
binding [2]: no binding
B1: EGFP-YB (protein, UniProt P25208 1-207)
chain: T1 sequence
